At least one compound was matched to its structure with a doubt left.
What was measured:
FAO-related genes = assay: RT-qPCR of FAO-related, mitochondrial and maturation genes in day 32 compact cardiomyocytes; assay type: cell-based, human; conditions: vs control cells, FIG. 2J (GW+Dex+T3 in low glucose media with palmitate)
Procedure: Total RNA from samples was isolated using RNAqueous™-micro Kit including RNase-free DNase treatment (invitrogen). RNA from dissected ventricular and atrial tissue of human fetal hearts was isolated using the TRIzol® method (ThermoFisher) and treated with DNase (Ambion®). Isolated RNA was reverse transcribed into cDNA using oligo (dT) primers and random hexamers and iScript™ Reverse Transcriptase (ThermoFisher). QRT-PCR was performed on an EP Real-Plex MasterCycler® (Eppendorf®) using QuantiFast® SYBR Green PCR kit (QIAGEN). The copy number of each gene relative to the house keeping gene TBP.

[1] = test system: CD36^+SIRPA^+ compact cardiomyocytes; assay: Flow cytometric analyses of CD36 and SIRPA expression; assay type: cell-based, human
Procedure: The EBs were dissociated by incubation in Collagenase type 2 (0.5 mg/ml, Worthington) in HANKs buffer overnight at room temperature followed by TrypLE™ for 5 mins at 37° C. The following antibodies were used for staining: anti-SIRPa-PeCy7 (Biolegend, 1:1000), anti-CD36-FITC (BD PharMingen™, 1:200), anti-LDLR-BV421 (BD PharMingen™, 1:100), anti-cardiac isoform of cTNT (ThermoFisher Scientific, 1:2000), or anti-myosin light chain 2 (Abcam,1:1000). For unconjugated primary antibodies, the following secondary antibodies were used for detection: goat anti-mouse IgG-APC (BD PharMingen™, 1:500), or donkey anti-rabbit IgG-PE (Jackson ImmunoResearch, 1:500). Detailed antibody information is described in the Key Resources Table. For cell-surface marker analyses, cells were stained for 30 min at 4° C. in FACS buffer consisting of PBS with 5% fetal calf serum (FCS) (Wisent) and 0.02% sodium azide. For intracellular staining, cells were fixed for 20 mins at 4° C. with 4% PFA in PBS followed by permeabilization using 90% methanol for 20 mins at 4° C. Cells were washed with PBS containing 0.5% BSA (Sigma) and stained with unconjugated primary antibodies in FACS buffer overnight at 4° C. Stained cells were washed with PBS with 0.5% BSA and stained with secondary antibodies in FACS buffer for 30 mins at 4° C. Stained cells were analyzed using the LSR II Flow cytometer (BD PharMingen™). Data were analyzed using FlowJo™ software (Tree Star).
To evaluate the capacity of the day 18 compact cardiomyocytes to undergo FAO, we analyzed them for expression of the fatty acid transporter CD36, which is essential for transporting fatty acid into cells (FIG. 2B). Given that most mature cardiomyocytes in the human heart express CD36, flow cytometric analyses of this transporter would provide rapid quantitative measure of the maturation status of these cells.

Row | Compound | expression of CD36, CPT1B, MLYCD and PDK4 (FAO-related genes) | development of CD36^+ cells (in words) ([1]; optimized conditions, Pal in low glucose, DT in high glucose) | proportion of cardiomyocytes that expressed high levels of CD36^+ (MFI 1000) ([1]; rotation cultures, 2 g/L glucose, with GW+Dex+T3) | effect on CD36 expression among other pathways tested ([1]; only observed in the presence of PPARα signaling)
1 | CCCCCCCCCCCCCCCC(=O)O [palmitate] | significantly higher levels | not effective | significant increase | 
2 | C[C@@H]1C[C@H]2[C@@H]3CCC4=CC(=O)C=C[C@]4(C)[C@@]3(F)[C@@H](O)C[C@]2(C)[C@@]1(O)C(=O)CO [dexamethasone] |  |  |  | largest effect
